Some of the results follow.

Protein sequences, listed by entry. Tags and fused reporters are not part of them.
UniProt Q0JBA9, entry or part of it: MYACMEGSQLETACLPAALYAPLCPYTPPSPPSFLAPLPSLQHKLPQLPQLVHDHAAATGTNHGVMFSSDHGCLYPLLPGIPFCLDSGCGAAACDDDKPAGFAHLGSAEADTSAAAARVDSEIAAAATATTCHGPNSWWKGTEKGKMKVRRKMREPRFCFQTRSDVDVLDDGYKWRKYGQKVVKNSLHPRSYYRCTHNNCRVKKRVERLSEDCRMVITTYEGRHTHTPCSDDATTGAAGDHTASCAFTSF

Results on 54 sequences are retold here after article PMC7819943, “Rice protein-binding microarrays: a tool to detect cis-acting elements near promoter regions in rice”.

In this experiment the target is OsWRKY34 (Oryza sativa, UniProt Q0JBA9 1-250). Put plainly: protein-binding microarray (RPBM); PBS, 2% BSA, 51.3 ng/ul salmon testes DNA, 50 uM zinc acetate, 200 nM TF, 25 C, 1 h; high values mean tight binding. The conditions noted are these: protein: recombinant; tags: N-terminal polyhistidine and DsRed monomer fusion (pET32a); label: CyDye5-dUTP incorporated in the synthesized complementary strand; 3' TTTTT single-stranded linker to array surface; dsDNA, one strand shown. The procedure, abridged: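 Ni–NTA purification followed expression in E. coli BL21-CodonPlus of transcription factors fused N-terminally to a polyhistidine tag and DsRed. At 200 nM in PBS with 2% BSA, salmon testes DNA and 50 µM zinc acetate, the protein was incubated for 1 h at 25 °C with a custom Agilent array that had been primer-extended with Cy5-dUTP and blocked with 2% BSA. After washing, the array was read on an Axon 4000B scanner. The binding signal is per-feature fluorescence intensity in arbitrary units.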
Regarding “ACCTCGACCCTCTGCCCCTCAACTCGGTGGTGACCACGCGCGGAGTCACCTAGTGCAG”, the binding signal is 8310 fluorescence intensity (a.u.).
The value for “CCCTCTCTCTCCCTTTGTCTCCTTCCCTTTCTTTATTCTGCGGAGTCACCTAGTGCAG” was 8580 fluorescence intensity (a.u.); that for “GAGGATGCGGGTGGGGACGCGAAAGAGGGTGTACTTGGCGCGGAGTCACCTAGTGCAG” was 10000 fluorescence intensity (a.u.); that for “TATTTTAGTGCAAGGGGCGGGCGGGCGCGGTAGAAGTCAACGGAGTCACCTAGTGCAG” was 18200 fluorescence intensity (a.u.).
For the sequence “GGTTTGTTTTGCCACTTTTGTGCTTATCTCGTTTTCCAAGCGGAGTCACCTAGTGCAG”, the binding signal was 10400 fluorescence intensity (a.u.).
As to “CTGGCTACCAAATTCACATTTTCTGTGGTACATGTACAAGCGGAGTCACCTAGTGCAG”, the binding signal was 8300 fluorescence intensity (a.u.).
Regarding “TAACAACTTTATCAGTCCTCATTCGGTTTTTTCTCTTTTACGGAGTCACCTAGTGCAG”, the binding signal is 9590 fluorescence intensity (a.u.).
For the sequence “CATCCGCACCCGTACATTATCCGCACCCGCTCCAAATCTGCGGAGTCACCTAGTGCAG”, the binding signal is 12600 fluorescence intensity (a.u.).
On to “AGCACACACATGGGGATCACATTATTACATAGACTTTGACCGGAGTCACCTAGTGCAG”, for which the binding signal was 8250 fluorescence intensity (a.u.).
With “GTCGAGGTGGTTCTTTTTTAACTTAGGGGTGATGGATATGCGGAGTCACCTAGTGCAG”, the binding signal is 10000 fluorescence intensity (a.u.).
As for “AAATTTGTGAAAAGTTGCATAAACGTTGACTCCAGTTTGCCGGAGTCACCTAGTGCAG”, the binding signal was 8770 fluorescence intensity (a.u.).
The figure for “CATATTATGCTGTCATATCCTCGAGTATTCGTGTACCAATCGGAGTCACCTAGTGCAG” is 9910 fluorescence intensity (a.u.); for “TCTCGCTGCGGCGCCGGCCCCACGCGCATCCCGCATCGCTCGGAGTCACCTAGTGCAG” it is 8850 fluorescence intensity (a.u.).
Consider “TGCCTTATTTCTATGTGGGTAAGCTCATTTTGTTGTTACGCGGAGTCACCTAGTGCAG”, for which the binding signal was 8930 fluorescence intensity (a.u.).
The value for “CATTCCACATCACATGCTTCACCACCATAGCCGGAAGCAACGGAGTCACCTAGTGCAG” was 8260 fluorescence intensity (a.u.).
The value for “CCTTCAAAGTTCAAATTTGTTTTCCTTTTTTTGTCGGTGTCGGAGTCACCTAGTGCAG” was 8990 fluorescence intensity (a.u.).
The value for “CCTCGTTCTTCTTCTTCTCTCTCTGGTTTTACATTTTTACCGGAGTCACCTAGTGCAG” was 10300 fluorescence intensity (a.u.).
As to “GCAAGCAGTTCAGTGGATCACATTACACGTCGCCCTGATTCGGAGTCACCTAGTGCAG”, the binding signal is 8060 fluorescence intensity (a.u.).
Regarding “TGACGGATCCTCCACCACCACCACCTCGATCGTCAAATCCCGGAGTCACCTAGTGCAG”, the binding signal is 10400 fluorescence intensity (a.u.).
For the sequence “TATACCTGCATTTTTACTACTAGCTCCTGTTACTTATCACCGGAGTCACCTAGTGCAG”, the binding signal is 9160 fluorescence intensity (a.u.).
For “GATTGCTAACTTGCTTCCTCCGTCCGCGGCCACCACTTTCCGGAGTCACCTAGTGCAG”, the binding signal was 10700 fluorescence intensity (a.u.).
With “CGCCGACAGCCCGAACCCGCGGCGACGTTTCCCTCGACCCCGGAGTCACCTAGTGCAG”, the binding signal is 8940 fluorescence intensity (a.u.).
The figure for “CACCCAAGAAAAAAACTAATTGCTATTGTGGGTGGGGTCCCGGAGTCACCTAGTGCAG” is 8030 fluorescence intensity (a.u.); for “TACCAAAGTTCTTTTTTTATGGCCATTTGTACCATTGTTACGGAGTCACCTAGTGCAG” it is 9410 fluorescence intensity (a.u.).
In the case of “CCTGCTCCGCCGCCGCCGCCGCCGCCGGCCTCCTCCGACCCGGAGTCACCTAGTGCAG”, the binding signal is 8360 fluorescence intensity (a.u.).
With “GGCTTATGGAGTTTGATCTCGTTAAATTTTTATACTTTTCCGGAGTCACCTAGTGCAG”, the binding signal is 8660 fluorescence intensity (a.u.).
The figure for “CTTTAGTTTTCACTTTTTGATTTTCTGCACACGCTTCCCACGGAGTCACCTAGTGCAG” is 8920 fluorescence intensity (a.u.); for “GTTGTTGCTTCTTGTGATAGCCTTGGAGCTCTTCGTACTACGGAGTCACCTAGTGCAG” it is 8070 fluorescence intensity (a.u.); for “TTTCTTTCTTTCTTTCTTTCGATTTCTTCTTCTTGCTTTACGGAGTCACCTAGTGCAG” it is 11200 fluorescence intensity (a.u.).
Take “CGTACTTTTTCCTTATTCTTAAGCTACCACTCCCTCGTTTCGGAGTCACCTAGTGCAG”: the binding signal is 12400 fluorescence intensity (a.u.).
Consider “AAACACACCCCTTCAATTCCTGCATTTTTTCTAATTTCTTCGGAGTCACCTAGTGCAG”, for which the binding signal was 10200 fluorescence intensity (a.u.).
The value for “CATGCAATTTTTTAGGGAATTAGGGATGTGCCGTGTCCAACGGAGTCACCTAGTGCAG” was 9080 fluorescence intensity (a.u.); that for “ACTTTCAACTTTTCCGTCAAATCGTTTCAATTTCAACCAACGGAGTCACCTAGTGCAG” was 8190 fluorescence intensity (a.u.).
On to “TTCGTGGACCTTTTAGAGTGTTAACCACTCGGATTCCTTTCGGAGTCACCTAGTGCAG”, for which the binding signal is 10400 fluorescence intensity (a.u.).
The figure for “AAAACCCTGTTCAGCCCCACCGTTTAGCCTTTACATTACCCGGAGTCACCTAGTGCAG” is 8740 fluorescence intensity (a.u.); for “CGTTTCTTGGCTGGTTTTCTTGGGCGGCGATCGATCGATGCGGAGTCACCTAGTGCAG” it is 8140 fluorescence intensity (a.u.).
The value for “GCACCTACGACTCCTCCATCATGTCATGTCATTTATTCATCGGAGTCACCTAGTGCAG” was 8120 fluorescence intensity (a.u.); that for “CCGGCGGCCATCCACCACACGGCTCCGGCTGCGGCTGCGCCGGAGTCACCTAGTGCAG” was 8470 fluorescence intensity (a.u.); that for “CAACCCCAACCCCAACCCCGGTCAATCCAAACCCAACTATCGGAGTCACCTAGTGCAG” was 9460 fluorescence intensity (a.u.).
As to “CTTCATATATACCCCTGGCACGCACTTACACACACATTCGCGGAGTCACCTAGTGCAG”, the binding signal was 9730 fluorescence intensity (a.u.).
For the sequence “ATCGATCGGCCGCACCGTTGTGCTTTTGTCCCTGATATACCGGAGTCACCTAGTGCAG”, the binding signal was 10300 fluorescence intensity (a.u.).
The figure for “CAACCCGATCGACGTCCCACCGGTCGTCCCTGCTGGCAATCGGAGTCACCTAGTGCAG” is 8720 fluorescence intensity (a.u.).
The figure for “TGTGGCTCTCGGAAGAAGTTGCTGCAGTCCGTGTTGTTCCCGGAGTCACCTAGTGCAG” is 8420 fluorescence intensity (a.u.); for “ACAACCGACCAGCAACGCCACTCTCACCATTACCATATATCGGAGTCACCTAGTGCAG” it is 9880 fluorescence intensity (a.u.); for “CACCTTTCTGTGCTCCCAAAACCATCCGCAACAACTCGTACGGAGTCACCTAGTGCAG” it is 8300 fluorescence intensity (a.u.).
The value for “TGTGTTACTGTTTCTGCCTGCTGCCCTCGATCCGACGCTACGGAGTCACCTAGTGCAG” was 8420 fluorescence intensity (a.u.).
As for “ATCTTTCAACCTGGCGCAATTGCCATTTTTCTCAAAGTTACGGAGTCACCTAGTGCAG”, the binding signal was 10600 fluorescence intensity (a.u.).
As for “TACTGCCTGTACATCCCGTGCTTCTCCGGCTCTCCGCTCTCGGAGTCACCTAGTGCAG”, the binding signal was 10200 fluorescence intensity (a.u.).
The figure for “AGTTGCGTCCCAATCTCATAAATTATTATCTCGTTTCTTTCGGAGTCACCTAGTGCAG” is 8940 fluorescence intensity (a.u.); for “GCACCGATGTCCCGGTCCCGCCGATATCACCGAGAAAAAACGGAGTCACCTAGTGCAG” it is 8270 fluorescence intensity (a.u.); for “AGAATCAGCTTGGCACCGTACCAAATCCCCAATGAGTAGCCGGAGTCACCTAGTGCAG” it is 8940 fluorescence intensity (a.u.).
Take “TGTTTTGTCATTAGTCTATGTTTAATACTTTAAATGTGTACGGAGTCACCTAGTGCAG”: the binding signal was 8320 fluorescence intensity (a.u.).
The figure for “GCGCGTCGCGTCGCACTTCACACCGTACCGTCTCATGCTACGGAGTCACCTAGTGCAG” is 9780 fluorescence intensity (a.u.); for “GGCCCAGAGTGCCACATTTTTTTGGGCCCATATCATCGCTCGGAGTCACCTAGTGCAG” it is 8660 fluorescence intensity (a.u.).
